In patent US20210301261A1, “HUMAN LIVER MICROPHYSIOLOGY PLATFORM AND SELF ASSEMBLY LIVER ACINUS MODEL AND METHODS OF THEIR USE” (priority 2014, published 2021):

Tested on: hepatocyte sentinel cells
Experiment: Statistical validation of biosensors in hepatocyte sentinel cells in microplates
Type: cell-based, human
Source text: A panel of biosensors was delivered through lentiviral transduction in multiple fluorescent protein colors initially validated in microplates for an acute response. An SSMD level of ≥2 is considered a statistically valid response.

CC1=CC(=O)c2ccccc2C1=O [Menadione]
>2: SSMD, Mitochondrial Calcium Uptake biosensor (50 μM, at 4.5 hr) | SSMD, Reactive Oxygen Species in Mito. biosensor (100 μM, at 2.5 hr) | SSMD, Cytochrome C Release: Apoptosis biosensor (100 μM, at 5 hr)
